In the supplement of paper PMC7125110:
± gives the standard error. The uncertainty is large for many entries.

B1: glmS ribozyme (parent)
chain: AUAAAAGCGCCAGAACUACAGAAAUGUAGUUGACGAGGAGGAGGUUUAUCGAAUUUUCGGCGGAUGCCUCCAAA

Variants of: B1
Experiment: kcat; higher = faster cleavage; RNA array
Conditions: with glucosamine-6-phosphate
Procedure, shortened: (§1)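 Glucosamine-6-phosphate in HEPES/KCl/Mg(OAc)2 buffer, at 40 μM to 10 mM, was flowed over barcoded ribozyme variants transcribed in situ by E. coli RNA polymerase on sequenced MiSeq chips. Tracking was through a hybridised Cy3 probe at 37 °C. kobs, kcat and KM came from exponential decay fits and weighted Michaelis–Menten fits of normalised per-tile medians.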

Variant	kcat
U54A U55C	0.00725 ± 0.0046 s⁻¹
U54C A64U	7.19e-05 ± 1e-05 s⁻¹
U54C C71A	0.00379 ± 0.00088 s⁻¹
U54C C71G	0.00083 ± 0.00027 s⁻¹
U54G C61G	1.78e-05 ± 5.8e-06 s⁻¹
U54G C71U	0.0983 ± 0.071 s⁻¹
U54G U55G	0.0144 ± 0.014 s⁻¹
U55A C68U	0.00418 ± 0.0033 s⁻¹
U55A C70G	0.000118 ± 1.5e-05 s⁻¹
U56A G59A C68A	2.07e-05 ± 1.1e-05 s⁻¹
U56A G66A	0.00503 ± 0.0023 s⁻¹
U56G G63A	1.25e-05 ± 9.3e-06 s⁻¹
U56G U65A	0.00479 ± 0.0029 s⁻¹
U56G U69C	0.00124 ± 0.0008 s⁻¹
U57G U69C	1.77e-05 ± 7.2e-06 s⁻¹
C58U C68G	5.58e-05 ± 2.9e-05 s⁻¹
G62U C68U	1.22e-05 ± 1.2e-06 s⁻¹
G63U C68A	1.22e-05 ± 2.6e-06 s⁻¹
A64U C70A	1.14e-05 ± 6.6e-06 s⁻¹
G66A C70G	0.000217 ± 0.00018 s⁻¹
C67U C68U C71G	3.63e-05 ± 2.4e-05 s⁻¹
U69C C71A	0.000722 ± 0.00038 s⁻¹

Variants of: B1
Experiment: KM; higher = weaker cofactor use; RNA array
Conditions: with glucosamine-6-phosphate
Procedure, shortened: as §1

Variant	KM
U54A U55C	281 ± 270 µM
U54C A64U	984 ± 610 µM
U54C C71A	1580 ± 530 µM
U54C C71G	1320 ± 990 µM
U54G C71U	6240 ± 5100 µM
U55A C70G	63.5 ± 36 µM
U56A G66A	1560 ± 930 µM
U56G U65A	9160 ± 8200 µM
U56G U69C	469 ± 450 µM
G62U C68U	170 ± 120 µM
U69C C71A	701 ± 580 µM
A6C A39C	2080 ± 1200 µM
A6C U47A	6300 ± 770 µM
A6C U56A	2410 ± 2300 µM
A6G A12C	9740 ± 5000 µM
A6G A12U	519 ± 280 µM
A6G A15C	1700 ± 240 µM
A6G U47G	1400 ± 520 µM
A6G U55A C68G	55.6 ± 52 µM
A6U A15G U30C	2730 ± 1400 µM
A6U C11G	1370 ± 460 µM
A6U C16U	1970 ± 520 µM
A6U C67G	285 ± 210 µM
A6U G41U	18900 ± 1800 µM

Variant	KM
A6U U54A	1270 ± 830 µM
A6U U55G	23900 ± 14000 µM
G7A U45A	1050 ± 660 µM
G7A U55A	34400 ± 4600 µM
G7C A53G	89 ± 48 µM
G7U G37C	232 ± 120 µM
G9A A12G	91.6 ± 72 µM
G9A A12U	12500 ± 1300 µM
G9A G13U	36.7 ± 31 µM
G9A U45A	1260 ± 770 µM
G9U C11A	159 ± 62 µM
C10G A15U	26 ± 19 µM
C10G G60U	12800 ± 5700 µM
C10U A33U	690 ± 480 µM
C10U G32U	360 ± 220 µM
C10U U55C	8450 ± 4700 µM
C10U U56G	839 ± 660 µM
C11A A12G G13A A15C C16U U17A A18C C19A A20G G21A	197 ± 200 µM
C11A U30A C50U	121 ± 99 µM
C11A U30G	6140 ± 920 µM
C11A U31G	3900 ± 1600 µM
C11A U49A	15.3 ± 9.8 µM
C11G A33U U54G C67A C71U	232 ± 220 µM
C11G G35A	151 ± 150 µM

A run of entries taken from the entries so far, as a working copy:
Variant	KM
G7C A53G	89 ± 48 µM
G7U G37C	232 ± 120 µM
G9A A12G	91.6 ± 72 µM
G9A A12U	12500 ± 1300 µM

4 records drawn at random from those above:
Variant	KM
C11A A12G G13A A15C C16U U17A A18C C19A A20G G21A	197 ± 200 µM
C10U U55C	8450 ± 4700 µM
G7U G37C	232 ± 120 µM
C11A U30G	6140 ± 920 µM

Additional entries follow.

Variant	KM
C11U A12U U56C	2120 ± 1200 µM
C11U G32U	34800 ± 20000 µM
C11U G41A	952 ± 500 µM
C11U G66A U69A	278 ± 200 µM
C11U U31A	2380 ± 1800 µM
C11U U55G C70G	128 ± 81 µM
A12C C34A	389 ± 270 µM
A12C C58U	6360 ± 1200 µM
A12C C71U	2270 ± 1200 µM
A12C G44A A53U	4570 ± 530 µM
A12C U31G	2340 ± 410 µM
A12C U45C	7280 ± 3000 µM
A12C U65A	2790 ± 570 µM
A12G A15G	4550 ± 1800 µM
A12G A53G	4470 ± 620 µM
A12G G32U C70U	1760 ± 1300 µM
A12G G40U	3740 ± 350 µM
A12G G41U	10300 ± 930 µM
A12G U69A	669 ± 570 µM
A12U A15C	246 ± 180 µM
A12U A15G	534 ± 290 µM
A12U A15U A39C	910 ± 550 µM

Variants of: B1
Experiment: self-cleavage kobs at 40 uM GlcN6P; higher = faster cleavage; RNA array
Conditions: with glucosamine-6-phosphate
Procedure, shortened: as §1

Variant	self-cleavage kobs at 40 uM GlcN6P
U54C C71G	2.07e-05 ± 1.4e-05 s⁻¹
C58U C68G	2.08e-05 ± 1.4e-05 s⁻¹
C11U U31A	1.4e-05 ± 1.3e-05 s⁻¹
A12G A53G	1.26e-05 ± 1e-05 s⁻¹

Variants of: B1
Experiment: self-cleavage kobs at 2500 uM GlcN6P; higher = faster cleavage; RNA array
Conditions: with glucosamine-6-phosphate
Procedure, shortened: as §1

Variant	self-cleavage kobs at 2500 uM GlcN6P
A6C U47A	2.93e-05 ± 1.6e-05 s⁻¹
A6C U56A	1.58e-05 ± 1.5e-05 s⁻¹
G7A U45A	2.42e-05 ± 2.1e-05 s⁻¹
C11U G32U	1.17e-05 ± 9.5e-06 s⁻¹
C11U U55G C70G	0.000141 ± 7.1e-05 s⁻¹

Variants of: B1
Experiment: self-cleavage kobs at 160 uM GlcN6P; higher = faster cleavage; RNA array
Conditions: with glucosamine-6-phosphate
Procedure, shortened: as §1

Variant	self-cleavage kobs at 160 uM GlcN6P
A6G A12U	1.58e-05 ± 1.5e-05 s⁻¹
A6U A15G U30C	2.59e-05 ± 1.9e-05 s⁻¹
C11A U31G	2.82e-05 ± 1.6e-05 s⁻¹

Variants of: B1
Experiment: self-cleavage kobs at 640 uM GlcN6P; higher = faster cleavage; RNA array
Conditions: with glucosamine-6-phosphate
Procedure, shortened: as §1

Variant	self-cleavage kobs at 640 uM GlcN6P
A6G A15C	1.86e-05 ± 1.2e-05 s⁻¹
C10U G32U	2.76e-05 ± 1.6e-05 s⁻¹

Variants of: B1
Experiment: self-cleavage kobs at 10000 uM GlcN6P; higher = faster cleavage; RNA array
Conditions: with glucosamine-6-phosphate
Procedure, shortened: as §1

Variant	self-cleavage kobs at 10000 uM GlcN6P
A6G U55A C68G	2.36e-05 ± 2e-05 s⁻¹
A6U G41U	1.7e-05 ± 1.2e-05 s⁻¹
G7A U55A	2.01e-05 ± 1.1e-05 s⁻¹
